This is one part of the list.

Protein sequences, listed by entry. Tags and fused reporters are not part of them. Lines headed by an entry give the natural chain unless they say otherwise; changes in a name come on top.
UniProt Q8IZ21: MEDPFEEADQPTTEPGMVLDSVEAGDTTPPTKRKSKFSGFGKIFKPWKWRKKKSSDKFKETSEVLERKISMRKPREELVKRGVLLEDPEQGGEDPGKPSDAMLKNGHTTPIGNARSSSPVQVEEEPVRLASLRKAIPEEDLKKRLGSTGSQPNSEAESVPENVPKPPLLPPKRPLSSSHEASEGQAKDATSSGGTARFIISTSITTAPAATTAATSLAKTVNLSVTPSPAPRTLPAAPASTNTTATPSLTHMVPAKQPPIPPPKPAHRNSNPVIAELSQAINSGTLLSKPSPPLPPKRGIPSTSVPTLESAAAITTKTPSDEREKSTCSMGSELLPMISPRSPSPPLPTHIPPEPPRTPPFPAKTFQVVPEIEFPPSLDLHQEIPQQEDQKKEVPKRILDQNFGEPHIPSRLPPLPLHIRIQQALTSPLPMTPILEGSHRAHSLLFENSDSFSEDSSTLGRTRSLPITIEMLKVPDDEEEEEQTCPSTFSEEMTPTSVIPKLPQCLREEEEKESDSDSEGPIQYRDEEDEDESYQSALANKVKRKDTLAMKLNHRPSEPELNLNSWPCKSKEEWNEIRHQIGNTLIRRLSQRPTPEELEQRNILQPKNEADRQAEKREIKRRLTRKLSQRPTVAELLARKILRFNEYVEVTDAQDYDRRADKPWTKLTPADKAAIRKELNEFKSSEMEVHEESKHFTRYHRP
UniProt Q99623, whole entry, looked up: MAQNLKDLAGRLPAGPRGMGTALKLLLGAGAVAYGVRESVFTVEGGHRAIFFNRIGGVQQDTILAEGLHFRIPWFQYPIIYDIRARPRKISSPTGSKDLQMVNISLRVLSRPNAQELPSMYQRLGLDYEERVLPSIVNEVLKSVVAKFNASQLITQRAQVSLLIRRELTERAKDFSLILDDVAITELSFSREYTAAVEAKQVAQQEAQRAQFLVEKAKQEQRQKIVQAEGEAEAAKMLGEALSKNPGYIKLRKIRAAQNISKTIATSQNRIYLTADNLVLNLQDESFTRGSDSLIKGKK
UniProt Q9C010: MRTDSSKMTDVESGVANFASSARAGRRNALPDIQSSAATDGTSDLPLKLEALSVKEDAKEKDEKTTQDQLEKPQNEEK
UniProt O00459, whole entry, looked up: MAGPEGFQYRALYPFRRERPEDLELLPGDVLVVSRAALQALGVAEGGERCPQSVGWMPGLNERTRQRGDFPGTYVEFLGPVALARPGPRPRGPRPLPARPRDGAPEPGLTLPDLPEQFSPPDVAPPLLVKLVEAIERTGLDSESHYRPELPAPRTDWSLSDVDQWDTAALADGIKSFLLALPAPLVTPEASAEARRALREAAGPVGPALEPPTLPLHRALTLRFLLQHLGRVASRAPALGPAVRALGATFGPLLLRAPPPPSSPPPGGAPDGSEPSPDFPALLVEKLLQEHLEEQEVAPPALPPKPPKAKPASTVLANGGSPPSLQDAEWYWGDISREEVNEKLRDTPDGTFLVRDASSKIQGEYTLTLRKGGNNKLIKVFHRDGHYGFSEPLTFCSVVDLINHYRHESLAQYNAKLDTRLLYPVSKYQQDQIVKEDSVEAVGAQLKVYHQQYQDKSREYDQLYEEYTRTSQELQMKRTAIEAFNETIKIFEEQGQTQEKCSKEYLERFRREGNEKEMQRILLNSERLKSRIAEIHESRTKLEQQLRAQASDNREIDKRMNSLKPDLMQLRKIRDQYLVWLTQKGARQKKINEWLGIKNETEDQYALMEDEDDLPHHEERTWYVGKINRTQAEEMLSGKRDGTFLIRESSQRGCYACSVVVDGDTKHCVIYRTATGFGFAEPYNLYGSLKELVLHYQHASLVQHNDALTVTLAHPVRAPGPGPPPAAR
UniProt Q9NRX4: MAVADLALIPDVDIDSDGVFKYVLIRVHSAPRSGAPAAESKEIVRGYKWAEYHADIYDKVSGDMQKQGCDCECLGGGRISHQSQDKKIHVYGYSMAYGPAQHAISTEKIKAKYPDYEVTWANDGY
UniProt Q00169: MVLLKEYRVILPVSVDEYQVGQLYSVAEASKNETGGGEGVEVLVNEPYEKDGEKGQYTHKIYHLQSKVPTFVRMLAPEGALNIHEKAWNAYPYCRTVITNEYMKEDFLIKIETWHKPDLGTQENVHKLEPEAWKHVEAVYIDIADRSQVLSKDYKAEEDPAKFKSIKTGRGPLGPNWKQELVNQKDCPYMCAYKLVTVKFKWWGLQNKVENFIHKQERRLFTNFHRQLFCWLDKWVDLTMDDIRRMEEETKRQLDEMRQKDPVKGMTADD
UniProt P56589: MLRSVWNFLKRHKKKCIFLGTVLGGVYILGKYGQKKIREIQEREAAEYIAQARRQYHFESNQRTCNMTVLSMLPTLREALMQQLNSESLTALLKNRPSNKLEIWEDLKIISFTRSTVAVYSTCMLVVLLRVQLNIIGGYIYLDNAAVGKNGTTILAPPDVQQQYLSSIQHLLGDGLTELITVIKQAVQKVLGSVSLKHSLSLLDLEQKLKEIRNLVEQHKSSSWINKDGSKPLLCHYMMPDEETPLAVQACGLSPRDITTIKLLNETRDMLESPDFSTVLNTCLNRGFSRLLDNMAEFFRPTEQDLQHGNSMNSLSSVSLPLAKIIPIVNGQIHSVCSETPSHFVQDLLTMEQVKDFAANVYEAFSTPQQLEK
UniProt Q7Z7B1: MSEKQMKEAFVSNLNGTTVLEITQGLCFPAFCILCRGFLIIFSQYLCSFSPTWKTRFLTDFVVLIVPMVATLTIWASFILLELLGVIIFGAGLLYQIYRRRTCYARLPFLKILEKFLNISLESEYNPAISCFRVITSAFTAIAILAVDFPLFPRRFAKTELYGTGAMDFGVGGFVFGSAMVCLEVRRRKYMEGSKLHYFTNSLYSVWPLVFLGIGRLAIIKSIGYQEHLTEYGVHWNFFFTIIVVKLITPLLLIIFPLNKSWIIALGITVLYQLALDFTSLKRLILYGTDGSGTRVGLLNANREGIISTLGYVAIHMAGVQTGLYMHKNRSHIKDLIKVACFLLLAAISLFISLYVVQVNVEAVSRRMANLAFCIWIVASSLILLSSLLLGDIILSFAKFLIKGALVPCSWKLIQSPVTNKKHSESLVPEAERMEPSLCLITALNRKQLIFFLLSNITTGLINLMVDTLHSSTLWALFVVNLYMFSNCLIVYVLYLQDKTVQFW
UniProt Q8WUB8: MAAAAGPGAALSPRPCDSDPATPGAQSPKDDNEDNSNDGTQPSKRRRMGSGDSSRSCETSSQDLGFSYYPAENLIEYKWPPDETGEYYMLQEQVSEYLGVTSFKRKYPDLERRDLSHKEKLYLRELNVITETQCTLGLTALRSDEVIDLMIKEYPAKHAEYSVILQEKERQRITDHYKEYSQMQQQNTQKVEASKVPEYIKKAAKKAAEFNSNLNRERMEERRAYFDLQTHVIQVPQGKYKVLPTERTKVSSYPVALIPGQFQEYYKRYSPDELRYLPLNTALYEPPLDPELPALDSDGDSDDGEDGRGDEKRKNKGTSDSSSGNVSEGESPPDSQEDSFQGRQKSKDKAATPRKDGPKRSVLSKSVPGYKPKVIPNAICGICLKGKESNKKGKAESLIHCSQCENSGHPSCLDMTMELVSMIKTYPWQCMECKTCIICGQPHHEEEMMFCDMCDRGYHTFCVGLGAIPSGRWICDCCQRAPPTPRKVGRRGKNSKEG
UniProt Q9GZP4: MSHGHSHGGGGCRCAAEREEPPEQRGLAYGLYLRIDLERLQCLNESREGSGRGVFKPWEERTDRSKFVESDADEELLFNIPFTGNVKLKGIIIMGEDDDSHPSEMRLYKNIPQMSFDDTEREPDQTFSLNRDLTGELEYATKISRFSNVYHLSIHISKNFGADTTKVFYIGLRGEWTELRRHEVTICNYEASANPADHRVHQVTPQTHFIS
UniProt P15735: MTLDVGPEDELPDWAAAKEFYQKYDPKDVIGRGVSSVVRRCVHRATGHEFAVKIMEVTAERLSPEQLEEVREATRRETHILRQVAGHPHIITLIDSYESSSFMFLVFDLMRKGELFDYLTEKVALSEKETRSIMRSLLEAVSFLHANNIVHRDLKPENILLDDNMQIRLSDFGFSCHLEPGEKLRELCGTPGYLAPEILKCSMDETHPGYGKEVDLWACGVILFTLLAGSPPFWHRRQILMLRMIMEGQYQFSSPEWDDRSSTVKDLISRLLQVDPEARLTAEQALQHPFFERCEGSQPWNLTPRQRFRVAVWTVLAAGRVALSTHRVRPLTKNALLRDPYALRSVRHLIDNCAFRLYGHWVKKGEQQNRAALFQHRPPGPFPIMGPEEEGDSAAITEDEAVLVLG
UniProt P48736: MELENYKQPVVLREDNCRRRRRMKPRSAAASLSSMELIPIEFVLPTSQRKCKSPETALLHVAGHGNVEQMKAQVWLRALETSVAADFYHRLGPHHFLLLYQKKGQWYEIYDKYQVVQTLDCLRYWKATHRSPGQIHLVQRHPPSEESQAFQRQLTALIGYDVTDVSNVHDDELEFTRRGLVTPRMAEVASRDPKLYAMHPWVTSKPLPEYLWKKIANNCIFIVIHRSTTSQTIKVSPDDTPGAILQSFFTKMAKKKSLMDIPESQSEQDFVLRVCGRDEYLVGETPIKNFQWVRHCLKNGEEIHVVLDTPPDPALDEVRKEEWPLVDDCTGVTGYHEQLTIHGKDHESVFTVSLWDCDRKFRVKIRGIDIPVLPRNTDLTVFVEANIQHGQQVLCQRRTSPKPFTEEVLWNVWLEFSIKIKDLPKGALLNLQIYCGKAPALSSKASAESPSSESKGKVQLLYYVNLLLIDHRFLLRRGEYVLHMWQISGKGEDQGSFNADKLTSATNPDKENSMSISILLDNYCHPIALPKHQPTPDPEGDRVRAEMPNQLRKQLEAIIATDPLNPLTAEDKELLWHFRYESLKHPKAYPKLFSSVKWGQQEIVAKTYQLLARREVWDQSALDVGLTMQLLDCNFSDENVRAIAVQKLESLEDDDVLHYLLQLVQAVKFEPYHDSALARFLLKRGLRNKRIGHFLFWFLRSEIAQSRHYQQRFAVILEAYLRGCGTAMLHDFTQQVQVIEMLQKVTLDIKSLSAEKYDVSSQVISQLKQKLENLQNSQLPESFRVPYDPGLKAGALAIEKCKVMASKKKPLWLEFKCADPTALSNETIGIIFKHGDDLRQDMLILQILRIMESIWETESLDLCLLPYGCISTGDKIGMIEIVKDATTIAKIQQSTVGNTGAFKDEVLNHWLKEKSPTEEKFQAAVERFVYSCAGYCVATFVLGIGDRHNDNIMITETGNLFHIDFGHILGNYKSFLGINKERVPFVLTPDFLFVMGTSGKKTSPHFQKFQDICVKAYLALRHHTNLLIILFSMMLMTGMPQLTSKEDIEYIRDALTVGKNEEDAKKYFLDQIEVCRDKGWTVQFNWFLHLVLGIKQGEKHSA
UniProt P16885: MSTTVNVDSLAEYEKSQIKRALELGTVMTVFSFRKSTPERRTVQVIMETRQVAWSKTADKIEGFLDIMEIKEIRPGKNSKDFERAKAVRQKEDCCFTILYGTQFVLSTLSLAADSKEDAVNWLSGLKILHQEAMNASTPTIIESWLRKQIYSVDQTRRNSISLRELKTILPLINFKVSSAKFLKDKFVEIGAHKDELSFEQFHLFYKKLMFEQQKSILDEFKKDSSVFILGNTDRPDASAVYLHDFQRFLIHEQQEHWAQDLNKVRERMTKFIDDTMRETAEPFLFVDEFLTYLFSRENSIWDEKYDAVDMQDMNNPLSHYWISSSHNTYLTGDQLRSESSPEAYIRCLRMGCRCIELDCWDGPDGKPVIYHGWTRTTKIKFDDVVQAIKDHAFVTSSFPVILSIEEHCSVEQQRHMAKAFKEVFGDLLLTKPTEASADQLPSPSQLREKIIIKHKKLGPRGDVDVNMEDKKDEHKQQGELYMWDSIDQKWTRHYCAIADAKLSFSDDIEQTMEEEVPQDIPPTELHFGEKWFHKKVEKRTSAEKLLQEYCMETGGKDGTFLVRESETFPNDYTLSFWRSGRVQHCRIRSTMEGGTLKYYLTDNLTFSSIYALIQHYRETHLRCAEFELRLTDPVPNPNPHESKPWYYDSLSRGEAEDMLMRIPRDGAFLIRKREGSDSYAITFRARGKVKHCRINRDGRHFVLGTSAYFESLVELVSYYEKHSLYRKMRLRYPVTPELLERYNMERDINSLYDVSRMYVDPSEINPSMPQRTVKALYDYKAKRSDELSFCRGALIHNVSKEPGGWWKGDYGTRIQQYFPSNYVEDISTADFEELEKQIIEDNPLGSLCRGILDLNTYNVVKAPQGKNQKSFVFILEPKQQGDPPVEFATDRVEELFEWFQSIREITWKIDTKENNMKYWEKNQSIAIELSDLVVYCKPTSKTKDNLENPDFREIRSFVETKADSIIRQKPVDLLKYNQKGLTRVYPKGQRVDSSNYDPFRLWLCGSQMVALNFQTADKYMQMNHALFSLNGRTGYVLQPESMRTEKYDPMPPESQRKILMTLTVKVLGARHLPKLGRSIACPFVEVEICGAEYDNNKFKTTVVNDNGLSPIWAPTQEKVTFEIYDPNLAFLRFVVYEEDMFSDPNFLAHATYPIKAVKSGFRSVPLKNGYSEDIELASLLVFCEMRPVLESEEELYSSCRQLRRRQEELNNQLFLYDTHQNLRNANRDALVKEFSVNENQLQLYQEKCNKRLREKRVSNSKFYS

Compound in the experiment: c1cn2cc(-c3ccc4cn[nH]c4c3)nc(Nc3ccc(N4CCOCC4)cc3)c2n1 [entospletinib]
The experiment is described as follows: log2 fold change, soluble protein after heating vs DMSO (PISA); higher = thermal stabilisation; K562 cells, 10 uM, 30 min; active = over 0.2 and 3.5 SD of the protein, either way, in both replicates (recomputed). In a few lines: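 Thermal stability values are relative to control samples and come from duplicates. They are expressed as log2 fold changes. For measurement, K562 cells (2×10^6 cells/mL) received 10 μM compound for 30 min, and aliquots were heated for 3 min over 48°C-58°C, pooled, and extracted at 4°C in PBS with 0.5% NP-40. Soluble protein, the supernatant after 21,000xg for 90 min, was quantified by TMTpro 16plex LC-MS/MS with equalised channel sums.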
Consider PFKL isoform 2 (UniProt P17858), for which the log2 fold change is inactive: -0.044.

On to PHACTR4 isoform 2 (UniProt Q8IZ21), for which the log2 fold change was inactive: 0.02.

With PHB2 (UniProt Q99623), the log2 fold change was inactive: -0.01.

For PIP5K1A (UniProt Q99755), the log2 fold change is inactive: -0.004.

For PKIB isoform 2 (UniProt Q9C010), the log2 fold change is inactive: -0.073.

In the case of PHC2 isoform 5 (UniProt Q8IXK0), the log2 fold change was inactive: -0.006.

As to PIK3R2 (UniProt O00459), the log2 fold change is inactive: 0.012.

Regarding PIGU (UniProt Q9H490), the log2 fold change is inactive: 0.019.

Take PHPT1 (UniProt Q9NRX4): the log2 fold change was inactive: 0.064.

On to PFDN5 (UniProt Q99471), for which the log2 fold change is inactive: 0.014.

Take PIN4 isoform 2 (UniProt Q9Y237): the log2 fold change is inactive: -0.025.

Turning to PITPNA (UniProt Q00169), the log2 fold change is inactive: -0.058.

Turning to PEX3 (UniProt P56589), the log2 fold change is inactive: 0.01.

For PIGW (UniProt Q7Z7B1), the log2 fold change was inactive: -0.059.

PHF10 (UniProt Q8WUB8): the log2 fold change is inactive: -0.045.

PITHD1 (UniProt Q9GZP4): the log2 fold change is inactive: 0.13.

PHKG2 (UniProt P15735): the log2 fold change is active: -0.279.

For the target PFDN2 (UniProt Q9UHV9), the log2 fold change is inactive: 0.002.

In the case of PIK3CG (UniProt P48736), the log2 fold change is inactive: 0.038.

Regarding PLCG2 (UniProt P16885), the log2 fold change was inactive: -0.042.

Regarding PI4KA (UniProt P42356), the log2 fold change was inactive: 0.123.

For PLD1 (UniProt Q13393), the log2 fold change is inactive: -0.036.

For the target PGD (UniProt P52209), the log2 fold change is inactive: -0.05.

The record behind these values is the supplement of paper PMC10849652.
